PubChem BioAssay AID493246 | Drosophila RNAi Screening Center | 2011
Test: 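Genome-wide search for dsRNAs that reduce cell number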 (primary screen). System: Drosophila Kc and S2R+ cells. Reagents: long dsRNA against Drosophila genes. Measurement: 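Cell number per well after knock-down, printed as raw plate values; calls were based on per-plate z-scores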. Direction: Kc cell number and S2R+ cell number: higher = more cells remaining. Rule for the call: 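Active when the per-plate z-score of cell number is 3 or more in the direction of fewer cells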.
The deposit covers about 21,000 reagents; shown is a random part of those with a known target gene and a result. In the full data, 429 (2%) were called active. 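Values are raw and not normalised between plates; calls rest on per-plate z-scores that were not deposited.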 A number with no mark means an inactive call. The numbers tell different reagents against one gene apart. Names joined by + are all predicted targets of the reagent. The record does not give: the amount of reagent, the time to read-out.

Gene	reagent no.	Kc cell number, rep 1	Kc cell number, rep 2	S2R+ cell number, rep 1	S2R+ cell number, rep 2
Sol1	1	1.45e6	1.38e6	1.25e6	1.28e6
Sol1	2	1.40e6	1.42e6	1.24e6	1.34e6
Sol1	3	1.38e6	1.44e6	1.31e6	1.38e6
CG4611	1	1.28e6	1.38e6	1.16e6	1.15e6
Or43a	1	1.59e6	1.70e6	1.24e6	1.35e6
Traf4	1	1.68e6	1.69e6	1.15e6	1.31e6
Traf4	2	1.33e6	1.37e6	1.07e6	1.19e6
pasi1	1	1.31e6	1.27e6	1.07e6	1.16e6
CG11438	1	1.76e6	1.75e6	1.46e6	1.52e6
sr	1	1.36e6	1.37e6	1.06e6	1.15e6
sr	2	1.37e6	1.31e6	6.39e5	7.28e5
CG18278 + CG30059	1	1.51e6	1.43e6	9.52e5	1.17e6
CG15170	1	1.48e6	1.58e6	1.29e6	3.62e5
CG9826	1	1.67e6	1.75e6	1.39e6	1.54e6
CG9123	1	1.59e6	1.61e6	1.05e6	1.13e6
LamC	1	1.40e6	1.42e6	1.07e6	1.17e6
nxf2	1	1.57e6	1.66e6	1.26e6	1.33e6
CG4701	1	1.49e6	1.57e6	1.16e6	1.26e6
CG42323	1	1.60e6	1.64e6	1.15e6	1.25e6
CG14715	1	1.41e6	1.51e6	1.16e6	1.23e6
gzl	1	1.88e6	1.92e6	1.38e6	1.44e6
CG3071	1	5.11e5		8.34e5	
MFS9	1	1.47e6	1.58e6	1.14e6	1.16e6
CG14647	1	1.67e6	1.71e6	1.44e6	1.49e6
sNPF	1	1.45e6	1.57e6	1.34e6	3.41e5

5 entries from above in another layout.
sr #1 → Kc cell number, rep 1: 1.36e6; Kc cell number, rep 2: 1.37e6; S2R+ cell number, rep 1: 1.06e6; S2R+ cell number, rep 2: 1.15e6
sr #2 → Kc cell number, rep 1: 1.37e6; Kc cell number, rep 2: 1.31e6; S2R+ cell number, rep 1: 6.39e5; S2R+ cell number, rep 2: 7.28e5
CG18278 + CG30059 → Kc cell number, rep 1: 1.51e6; Kc cell number, rep 2: 1.43e6; S2R+ cell number, rep 1: 9.52e5; S2R+ cell number, rep 2: 1.17e6
CG15170 → Kc cell number, rep 1: 1.48e6; Kc cell number, rep 2: 1.58e6; S2R+ cell number, rep 1: 1.29e6; S2R+ cell number, rep 2: 3.62e5
CG9826 → Kc cell number, rep 1: 1.67e6; Kc cell number, rep 2: 1.75e6; S2R+ cell number, rep 1: 1.39e6; S2R+ cell number, rep 2: 1.54e6

Further results:
Gene	reagent no.	Kc cell number, rep 1	Kc cell number, rep 2	S2R+ cell number, rep 1	S2R+ cell number, rep 2
CG12917	1	1.46e6	1.50e6	1.26e6	1.37e6
COX5A	1	1.40e6	1.48e6	1.05e6	1.17e6
Arr2	1	1.48e6	1.71e6	1.30e6	1.29e6
Rcd-1r + CG13102	1	1.66e6	1.65e6	1.15e6	1.30e6
CG17490	1	5.90e5		8.04e5	
CG17490	2	1.49e6	1.57e6	1.21e6	3.55e5
hoka	1	1.48e6	1.58e6	1.15e6	1.21e6
Secp43	1	1.52e6	1.51e6	1.10e6	1.23e6
HSPBAP1	1	1.47e6	1.53e6	9.76e5	1.11e6
CG12460 (retired record)	1	1.57e6	1.57e6	9.49e5	1.08e6
CG16972	1	1.55e6	1.64e6	1.04e6	1.01e6
Alp8	1	1.68e6	1.79e6	1.35e6	3.94e5
wde	1	1.38e6	1.39e6	1.12e6	1.13e6
Jupiter	1	1.58e6	1.69e6	1.14e6	1.23e6
Jupiter	2	1.41e6	1.34e6	1.27e6	1.34e6
Jupiter	3	1.44e6	1.46e6	1.18e6	1.30e6
CG15818	1	1.40e6	1.37e6	6.13e5	8.01e5
hmw	1	1.61e6	1.70e6	1.29e6	1.35e6
Ugt50B3	1	1.41e6	1.47e6	9.67e5	1.06e6
Ugt50B3	2	1.39e6	1.52e6	9.62e5	1.05e6
tld	1	1.52e6	1.77e6	1.04e6	1.11e6
CG6652	1	1.43e6	1.51e6	1.17e6	1.25e6
Obp56b	1	1.50e6	1.55e6	1.17e6	1.28e6
Cth	1	1.49e6	1.50e6	1.12e6	1.11e6
CG31816	1	1.44e6	1.47e6	9.37e5	1.12e6
CDK2AP1	1	6.33e5		6.76e5	
Polr3D	1	1.46e6	1.49e6	1.11e6	1.22e6
Muc30E	1	1.25e6	1.37e6	1.04e6	1.24e6
CG12003	1	1.32e6	1.49e6	1.06e6	1.20e6
CG9497	1	1.35e6	1.45e6	6.10e5	9.01e5
kek2	1	1.70e6	1.80e6	1.41e6	1.51e6
CG7352	1	1.68e6	1.88e6	1.24e6	1.35e6
wac	1	1.66e6	8.87e5	1.10e6	1.22e6
Snmp1	1	1.24e6	1.18e6	8.98e5	1.01e6
